Measured values taken from the supplement of paper PMC10849652.
The list shows a part of the results.

Sequences of proteins named here, by UniProt entry; tags and fusion partners are left off. A change or cut given only in a name is not applied to a line headed by its entry.
UniProt Q96JB2: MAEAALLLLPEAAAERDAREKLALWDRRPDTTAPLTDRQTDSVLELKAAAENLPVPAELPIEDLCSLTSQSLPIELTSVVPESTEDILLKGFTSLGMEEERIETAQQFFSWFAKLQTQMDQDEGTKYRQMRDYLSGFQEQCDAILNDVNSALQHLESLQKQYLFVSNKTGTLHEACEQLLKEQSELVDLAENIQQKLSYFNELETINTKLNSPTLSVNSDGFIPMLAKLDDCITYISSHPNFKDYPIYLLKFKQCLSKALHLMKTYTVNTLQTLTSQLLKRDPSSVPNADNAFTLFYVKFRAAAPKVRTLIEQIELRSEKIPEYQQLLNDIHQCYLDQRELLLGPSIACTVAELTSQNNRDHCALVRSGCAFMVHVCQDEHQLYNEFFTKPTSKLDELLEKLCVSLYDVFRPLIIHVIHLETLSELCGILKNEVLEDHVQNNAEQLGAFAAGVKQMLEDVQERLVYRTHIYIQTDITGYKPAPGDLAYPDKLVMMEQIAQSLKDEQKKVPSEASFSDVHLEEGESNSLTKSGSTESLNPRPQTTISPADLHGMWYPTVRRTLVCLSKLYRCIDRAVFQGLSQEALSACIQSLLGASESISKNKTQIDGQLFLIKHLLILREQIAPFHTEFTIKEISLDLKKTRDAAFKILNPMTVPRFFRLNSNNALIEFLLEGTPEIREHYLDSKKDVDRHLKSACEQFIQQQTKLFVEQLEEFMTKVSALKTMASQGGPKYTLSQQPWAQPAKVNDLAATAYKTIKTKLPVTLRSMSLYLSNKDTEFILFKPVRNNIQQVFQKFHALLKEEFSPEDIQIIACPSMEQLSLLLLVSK
UniProt Q9Y2R0: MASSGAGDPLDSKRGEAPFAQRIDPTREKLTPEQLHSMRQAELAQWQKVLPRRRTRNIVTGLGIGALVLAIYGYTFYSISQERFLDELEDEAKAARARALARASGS
UniProt Q9NWW5: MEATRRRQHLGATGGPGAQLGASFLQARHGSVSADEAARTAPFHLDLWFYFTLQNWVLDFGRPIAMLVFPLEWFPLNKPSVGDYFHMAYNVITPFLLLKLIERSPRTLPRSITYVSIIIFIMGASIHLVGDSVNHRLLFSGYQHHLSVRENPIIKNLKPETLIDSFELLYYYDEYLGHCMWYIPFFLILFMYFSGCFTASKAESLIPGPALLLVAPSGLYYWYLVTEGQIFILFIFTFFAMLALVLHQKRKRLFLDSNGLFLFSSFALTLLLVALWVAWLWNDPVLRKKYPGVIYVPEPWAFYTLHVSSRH
UniProt P30622: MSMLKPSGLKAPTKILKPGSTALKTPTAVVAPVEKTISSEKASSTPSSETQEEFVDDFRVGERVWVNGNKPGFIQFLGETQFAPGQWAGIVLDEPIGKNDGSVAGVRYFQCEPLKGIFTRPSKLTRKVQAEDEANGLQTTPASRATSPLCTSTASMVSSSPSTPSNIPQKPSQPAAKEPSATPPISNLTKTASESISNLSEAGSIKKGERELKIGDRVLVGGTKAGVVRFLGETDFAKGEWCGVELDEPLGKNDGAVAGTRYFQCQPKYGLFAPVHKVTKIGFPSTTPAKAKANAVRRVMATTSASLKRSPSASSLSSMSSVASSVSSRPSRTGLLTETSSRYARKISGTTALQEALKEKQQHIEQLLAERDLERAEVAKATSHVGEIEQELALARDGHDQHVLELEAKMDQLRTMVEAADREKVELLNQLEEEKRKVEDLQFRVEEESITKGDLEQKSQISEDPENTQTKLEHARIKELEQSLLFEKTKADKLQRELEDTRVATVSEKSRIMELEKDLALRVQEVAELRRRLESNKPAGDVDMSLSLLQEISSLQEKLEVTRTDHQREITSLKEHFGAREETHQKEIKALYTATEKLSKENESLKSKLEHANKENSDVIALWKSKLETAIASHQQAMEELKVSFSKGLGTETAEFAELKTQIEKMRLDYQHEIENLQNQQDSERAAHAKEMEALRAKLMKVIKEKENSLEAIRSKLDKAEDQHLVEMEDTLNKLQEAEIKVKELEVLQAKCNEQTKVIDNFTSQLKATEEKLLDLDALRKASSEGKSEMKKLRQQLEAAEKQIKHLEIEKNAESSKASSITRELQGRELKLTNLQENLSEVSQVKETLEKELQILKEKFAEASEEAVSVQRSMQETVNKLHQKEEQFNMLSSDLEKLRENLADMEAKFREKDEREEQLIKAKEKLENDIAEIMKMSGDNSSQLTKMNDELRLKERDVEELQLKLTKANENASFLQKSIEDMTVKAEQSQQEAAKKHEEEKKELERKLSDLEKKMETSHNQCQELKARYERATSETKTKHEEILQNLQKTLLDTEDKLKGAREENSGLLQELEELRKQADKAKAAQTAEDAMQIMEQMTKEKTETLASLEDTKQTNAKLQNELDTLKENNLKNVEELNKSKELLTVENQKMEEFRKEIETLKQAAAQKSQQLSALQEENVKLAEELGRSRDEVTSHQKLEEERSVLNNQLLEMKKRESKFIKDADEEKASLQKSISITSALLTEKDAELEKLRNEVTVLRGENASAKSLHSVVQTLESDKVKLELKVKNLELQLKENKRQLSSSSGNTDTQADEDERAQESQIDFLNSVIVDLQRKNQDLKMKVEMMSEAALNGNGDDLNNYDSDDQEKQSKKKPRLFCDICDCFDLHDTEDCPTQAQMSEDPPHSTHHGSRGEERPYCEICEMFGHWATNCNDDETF
UniProt Q8WUH1: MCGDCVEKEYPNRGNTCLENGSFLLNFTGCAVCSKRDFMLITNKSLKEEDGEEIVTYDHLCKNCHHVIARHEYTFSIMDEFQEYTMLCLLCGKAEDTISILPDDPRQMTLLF
UniProt O76071: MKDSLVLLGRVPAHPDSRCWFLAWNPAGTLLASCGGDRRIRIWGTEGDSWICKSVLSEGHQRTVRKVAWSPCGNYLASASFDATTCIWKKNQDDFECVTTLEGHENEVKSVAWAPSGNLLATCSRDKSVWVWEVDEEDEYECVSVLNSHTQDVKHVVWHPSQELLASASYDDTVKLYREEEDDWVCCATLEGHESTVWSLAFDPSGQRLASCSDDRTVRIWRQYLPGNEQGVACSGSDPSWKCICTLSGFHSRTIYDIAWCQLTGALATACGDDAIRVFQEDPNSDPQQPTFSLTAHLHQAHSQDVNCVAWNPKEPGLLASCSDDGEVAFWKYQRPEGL
UniProt Q9Y696: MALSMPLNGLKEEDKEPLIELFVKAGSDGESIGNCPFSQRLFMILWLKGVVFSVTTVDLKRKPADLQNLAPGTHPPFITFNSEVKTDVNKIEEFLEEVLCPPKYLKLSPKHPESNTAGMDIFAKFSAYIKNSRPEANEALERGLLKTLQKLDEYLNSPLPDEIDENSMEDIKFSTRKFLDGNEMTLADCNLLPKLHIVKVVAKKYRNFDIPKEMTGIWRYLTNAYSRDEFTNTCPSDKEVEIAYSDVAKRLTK
UniProt Q96MX0: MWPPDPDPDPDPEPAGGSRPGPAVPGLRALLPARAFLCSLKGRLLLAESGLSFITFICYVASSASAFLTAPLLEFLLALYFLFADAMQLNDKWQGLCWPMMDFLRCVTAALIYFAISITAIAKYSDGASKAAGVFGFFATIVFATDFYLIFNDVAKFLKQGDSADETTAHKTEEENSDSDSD
UniProt Q92600, whole entry, looked up: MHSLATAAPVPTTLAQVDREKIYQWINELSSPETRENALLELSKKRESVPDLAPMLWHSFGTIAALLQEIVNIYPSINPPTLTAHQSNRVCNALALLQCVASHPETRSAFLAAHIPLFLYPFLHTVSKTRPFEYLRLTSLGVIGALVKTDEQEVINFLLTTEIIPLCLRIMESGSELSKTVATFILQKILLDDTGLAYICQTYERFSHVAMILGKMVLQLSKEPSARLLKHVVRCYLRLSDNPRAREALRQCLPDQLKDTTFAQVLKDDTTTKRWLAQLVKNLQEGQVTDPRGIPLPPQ
UniProt Q07065: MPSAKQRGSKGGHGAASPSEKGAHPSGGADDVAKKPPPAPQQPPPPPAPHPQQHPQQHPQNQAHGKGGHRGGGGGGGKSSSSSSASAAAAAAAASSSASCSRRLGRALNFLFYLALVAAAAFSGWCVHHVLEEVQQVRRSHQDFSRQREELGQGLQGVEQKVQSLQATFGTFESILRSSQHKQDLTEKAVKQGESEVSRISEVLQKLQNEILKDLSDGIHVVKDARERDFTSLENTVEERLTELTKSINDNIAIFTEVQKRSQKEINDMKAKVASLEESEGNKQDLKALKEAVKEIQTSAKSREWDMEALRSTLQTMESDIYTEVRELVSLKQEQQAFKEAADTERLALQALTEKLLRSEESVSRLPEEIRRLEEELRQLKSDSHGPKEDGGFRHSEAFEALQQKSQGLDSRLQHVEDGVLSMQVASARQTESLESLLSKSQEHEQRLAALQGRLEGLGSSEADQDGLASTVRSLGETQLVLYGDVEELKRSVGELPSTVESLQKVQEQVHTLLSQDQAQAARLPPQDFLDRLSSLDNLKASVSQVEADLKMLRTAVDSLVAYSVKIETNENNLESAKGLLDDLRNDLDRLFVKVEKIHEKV
UniProt Q9UP83: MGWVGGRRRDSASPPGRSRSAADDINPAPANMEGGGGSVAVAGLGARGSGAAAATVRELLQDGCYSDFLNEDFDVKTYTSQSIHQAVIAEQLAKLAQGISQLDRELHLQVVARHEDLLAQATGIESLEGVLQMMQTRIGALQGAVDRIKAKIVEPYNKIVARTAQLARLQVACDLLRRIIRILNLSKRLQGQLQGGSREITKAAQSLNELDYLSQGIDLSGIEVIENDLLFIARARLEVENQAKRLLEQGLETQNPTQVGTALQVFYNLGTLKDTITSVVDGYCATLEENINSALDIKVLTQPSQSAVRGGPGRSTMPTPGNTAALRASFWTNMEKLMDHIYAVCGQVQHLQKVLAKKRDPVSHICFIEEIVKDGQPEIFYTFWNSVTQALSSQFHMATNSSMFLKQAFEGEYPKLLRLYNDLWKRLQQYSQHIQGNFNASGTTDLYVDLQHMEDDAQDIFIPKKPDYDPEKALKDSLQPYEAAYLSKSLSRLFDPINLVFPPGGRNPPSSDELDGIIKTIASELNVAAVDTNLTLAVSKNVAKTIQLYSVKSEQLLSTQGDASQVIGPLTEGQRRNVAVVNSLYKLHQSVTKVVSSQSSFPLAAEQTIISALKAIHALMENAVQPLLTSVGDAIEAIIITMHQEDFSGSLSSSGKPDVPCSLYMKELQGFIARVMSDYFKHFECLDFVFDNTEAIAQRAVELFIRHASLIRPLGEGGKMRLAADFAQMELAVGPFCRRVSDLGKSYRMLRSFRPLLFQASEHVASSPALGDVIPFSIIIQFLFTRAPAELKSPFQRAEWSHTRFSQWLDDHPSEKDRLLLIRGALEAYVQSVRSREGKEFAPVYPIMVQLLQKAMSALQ
UniProt O94985: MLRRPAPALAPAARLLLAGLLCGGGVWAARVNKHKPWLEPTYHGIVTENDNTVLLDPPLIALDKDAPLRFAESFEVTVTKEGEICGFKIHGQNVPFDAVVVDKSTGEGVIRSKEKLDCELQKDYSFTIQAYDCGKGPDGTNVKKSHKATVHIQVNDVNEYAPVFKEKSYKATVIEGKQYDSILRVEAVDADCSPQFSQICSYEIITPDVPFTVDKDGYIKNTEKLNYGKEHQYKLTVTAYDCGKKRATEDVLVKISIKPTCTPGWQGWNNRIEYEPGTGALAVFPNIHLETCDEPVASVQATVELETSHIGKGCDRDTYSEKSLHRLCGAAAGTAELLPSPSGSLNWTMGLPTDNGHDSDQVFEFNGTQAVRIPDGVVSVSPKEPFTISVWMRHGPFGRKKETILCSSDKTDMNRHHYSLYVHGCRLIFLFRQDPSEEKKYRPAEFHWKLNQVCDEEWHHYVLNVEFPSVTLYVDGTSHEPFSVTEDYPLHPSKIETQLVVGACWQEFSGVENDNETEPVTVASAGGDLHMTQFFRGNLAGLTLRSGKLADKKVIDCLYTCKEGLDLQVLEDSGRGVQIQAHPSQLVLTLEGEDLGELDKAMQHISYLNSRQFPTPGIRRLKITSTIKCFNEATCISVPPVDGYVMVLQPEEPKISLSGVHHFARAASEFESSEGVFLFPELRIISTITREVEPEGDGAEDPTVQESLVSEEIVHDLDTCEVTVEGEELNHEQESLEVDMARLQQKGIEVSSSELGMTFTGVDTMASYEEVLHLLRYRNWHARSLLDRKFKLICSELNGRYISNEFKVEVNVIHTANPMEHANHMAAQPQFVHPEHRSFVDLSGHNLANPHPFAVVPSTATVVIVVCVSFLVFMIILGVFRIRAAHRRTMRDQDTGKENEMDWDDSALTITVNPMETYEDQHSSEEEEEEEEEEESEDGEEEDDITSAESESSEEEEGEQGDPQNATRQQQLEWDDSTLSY

Experiments:
Assay in all cases: log2 fold change, soluble protein after heating vs DMSO (PISA); higher = thermal stabilisation; K562 cells, 10 uM, 30 min; active = over 0.2 and 3.5 SD of the protein, either way, in both replicates (recomputed)
[1] = compound: C1=CC=C(C=C1)[C@H](COC2=CC3=C(C=C2)NC(=O)N3)NC(=O)C4=CC=CN(C4=O)CC5=CC(=C(C=C5)F)F
Procedure, shortened: (§1)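 Quantification of soluble protein used TMTpro 16plex LC-MS/MS, with channel sums equalised. Samples were the supernatant after 21,000xg for 90 min of pooled aliquots from K562 cells (2×10^6 cells/mL) treated with 10 μM compound for 30 min, heated for 3 min over 48°C-58°C, and extracted in PBS with 0.5% NP-40 at 4°C. Values, from duplicates, describe thermal stability against control samples on a log2 fold-change scale.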

[2] = compound: CC1=C(SC2=C1C(=N[C@H](C3=NN=C(N32)C)CC(=O)N)C4=CC=C(C=C4)Cl)C
Procedure, shortened: as §1

[3] = compound: CC1=C2C(=CC=C1)N=C(N(C2=O)C3=CC=CC=C3C)CN4C=NC5=C(N=CN=C54)N
Procedure, shortened: as §1

[4] = compound: c1ccc([C@@H]2C[C@H]2NC2CCNCC2)cc1
Procedure, shortened: as §1

[5] = compound: Cc1sc2c(c1C)C(c1ccc(Cl)cc1)=N[C@@H](CC(=O)OC(C)(C)C)c1nnc(C)n1-2
Procedure, shortened: as §1

Measured: log2 fold change

COG3 (UniProt Q96JB2)
inactive: [1] 0.138 | [2] -0.046 | [3] -0.047 | [4] -0.066

CNOT1 (UniProt A5YKK6)
inactive: [1] -0.02 | [2] 0.021 | [3] 0.031 | [5] -0.017 | [4] -0.021

CNNM2 (UniProt Q9H8M5)
inactive: [1] -0.094 | [2] -0.21 | [3] -0.043 | [5] -0.191 | [4] 0.136

COA3 (UniProt Q9Y2R0)
inactive: [1] -0.032 | [2] 0.005 | [3] -0.032 | [5] -0.043 | [4] 0.01

2 records drawn at random from the list so far, as already listed:
CNOT1 (UniProt A5YKK6)
inactive: [1] -0.02 | [2] 0.021 | [3] 0.031 | [5] -0.017 | [4] -0.021

COG3 (UniProt Q96JB2)
inactive: [1] 0.138 | [2] -0.046 | [3] -0.047 | [4] -0.066

Further entries follow.

CLN6 (UniProt Q9NWW5)
inactive: [1] -0.021 | [2] 0.309 | [3] -0.15 | [5] 0.161 | [4] -0.113

CLIP1 isoform 1 (UniProt P30622)
inactive: [1] 0.011 | [2] 0.01 | [3] 0.004 | [5] -0.012 | [4] 0.024

CHURC1 isoform 2 (UniProt Q8WUH1)
inactive: [1] -0.037 | [2] -0.006 | [3] 0.11 | [5] -0.089 | [4] 0.016

CIAO1 (UniProt O76071)
inactive: [1] -0.042 | [2] -0.008 | [3] 0.142 | [5] -0.039 | [4] -0.022

CLIC4 (UniProt Q9Y696)
inactive: [1] -0.018 | [2] 0.041 | [3] 0.122 | [5] -0.002 | [4] 0.028

CLCN2 (UniProt P51788)
inactive: [1] 0.028 | [2] 0.04 | [3] 0.014 | [4] 0.005

CLIP1 isoform 2 (UniProt P30622)
inactive: [1] 0.044 | [2] 0.027 | [3] 0.073 | [4] -0.047

CMTM3 (UniProt Q96MX0)
inactive: [1] -0.179 | [2] -0.001 | [3] -0.056 | [5] 0.044 | [4] 0.081

CNOT9 isoform 2 (UniProt Q92600)
inactive: [1] -0.063 | [2] 0.041 | [3] 0.034 | [5] -0.03 | [4] -0.005

CKAP4 (UniProt Q07065)
inactive: [2] 0.045 | [3] 0.198 | [5] 0 | [4] -0.02

COG5 isoform 2 (UniProt Q9UP83)
inactive: [3] 0.128

CLSTN1 (UniProt O94985)
inactive: [1] -0.046 | [2] 0.103 | [5] 0.058 | [4] 0.002
